Data as given in patent US5264565A, “Nucleic acid encoding the D2 /Ml chimeric receptor” (Affymax Technologies, N.V., priority 1991, dated 1993).

Target: D2 /ml receptor
Assay: Competition binding assay with [3H]-spiperone, D2/ml chimeric receptor
Set-up: species or system human
Details: 0.5 nM [3H]-spiperone, anti-log of mean log Ki, three experiments, Cheng-Prusoff
Experimental: Cells were detached from culture flasks with EDTA, pelleted at 1,000×g and resuspended in 1× binding buffer (100 mM Tris; 120 mM NaCl; 5 mM KCl; 1 mM MgCl2; 2 mM CaCl2; 1.1 mM ascorbic acid; pH 7.4) at ~1×10^6 cells/ml. Cells were homogenized with a Polytron (Brinkman) and the crude membrane fraction was pelleted at 17,000× g for 10 min. Membranes were resuspended in 1× binding buffer and ~10 μg of membrane protein from CHO-D2(414) cells or ~20 μg of protein from CHO-D2 /ml cells was used per 1 ml binding reaction. Triplicate binding reactions were done in IX binding buffer for 30 min. at 37°, then stopped by filtration through glass-fiber filters (Skatron) that were pre-soaked in 0.1% polyethyleneimine, followed by a 5 sec. wash with ice cold 0.1× binding buffer. […]. […] Competing ligands were all from Research Biochemicals Inc.
IC50 's were determined by analysis with the program ALLFIT (A. De Lean et al., Am. J. Physiol. 235:E97 (1978), which is incorporated herein by reference) and Ki computed using the Cheng-Prusoff equation (Y. Cheng and W. Prusoff, Biochem. Pharmacol. 22:3099 (1973), which is incorporated herein by reference). […] Values are the anti-log of the mean log Ki from three separate experiments and 95% confidence intervals calculated from the standard deviation of the log Ki.

Ki: 7.2 nM
SMILES: OCCN1CCN(CCCN2c3ccccc3Sc3ccc(C(F)(F)F)cc32)CC1 [Fluphenazine]
